Where “and” joins values, the source holds several entries; their conditions need not be identical. Equal entries are not always repeated. Structures can show the parent of a compound that is named as a salt. Some of the results follow. Repeats in this data set agree poorly, so a single value says little.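 HEK293T cells were given each compound shortly before transfection with a reporter in which red mCherry is followed by the SARS-CoV-2 frameshift element and then GFP in the −1 frame, so GFP appears only after frameshifting.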
Experiments:
[1] = system: SARS-CoV-2 -1 PRF reporter mCherry-FSE-GFP(-1); test: mCherry (red) intensity as percent of control; higher = higher upstream reporter expression; conditions: 10 µM; 24 h; HEK293T
[2] = system: SARS-CoV-2 -1 PRF reporter mCherry-FSE-GFP(-1); test: percent effect, decrease of GFP/mCherry ratio (-1 PRF reporter) relative to controls; higher = stronger frameshift inhibition; conditions: 10 µM; 24 h; HEK293T

Row | Compound | mCherry [1] | percent effect [2]
1 | CC(=O)O[C@]1(C(C)=O)CC[C@H]2[C@@H]3C=C(C)C4=CC(=O)CC[C@]4(C)[C@H]3CC[C@@]21C [Megestrol acetate] | 105% | -1.72%
2 | Cc1ccc(C(=O)N(CCCN)[C@@H](c2nc3cc(Cl)ccc3c(=O)n2Cc2ccccc2)C(C)C)cc1 [ispinesib] | 16.5% | -9.98%
3 | CNC(=O)c1cnn(-c2nc(N)c3ncn([C@@H]4O[C@H](CO)[C@@H](O)[C@H]4O)c3n2)c1 [regadenoson] | 106% | 0.293%
4 | C[C@]12CCC(=O)C=C1CC[C@@H]1[C@@H]2C(=O)C[C@@]2(C)[C@H]1CC[C@]2(O)C(=O)CO [cortisone] | 77.7% | -3.02%
5 | Cc1cccc(Nc2ccncc2S(=O)(=O)NC(=O)NC(C)C)c1 [torasemide] | 103% | -1.44%
6 | COc1cc(NC(=O)Nc2cccc(CNC(=O)O[C@H]3CCOC3)c2)ccc1-c1cnco1 [merimepodib] | 93.8% | -10.4%
7 | Cc1scc2c1N(C(=O)CN1CCN(C)CC1)c1ccccc1NC2=O | 119% | 4.14%
8 | CC1=C[C@H](O)CC(C)(C)[C@H]1/C=C/C(C)=C/C=C/C(C)=C/C=C/C=C(C)/C=C/C=C(C)/C=C/C1=C(C)C[C@@H](O)CC1(C)C | 86.8% | -2.38%
9 | CN(C)CCOC(C)(c1ccccc1)c1ccccn1 (centres undefined) | 134% | -4.6%
10 | CC(C)(C)CC(=O)OCC(=O)[C@@]12OC(C)(C)O[C@@H]1C[C@H]1[C@@H]3CCC4=CC(=O)C=C[C@]4(C)[C@@]3(F)[C@@H](O)C[C@@]12C [triamcinolone hexacetonide] | 88.7% | 0.511%
11 | N=C(N=C(N)N)N1CCOCC1 [Moroxydine·HCl] | 221% | -0.592%
12 | CCC(c1ccccc1)c1c(O)c2ccccc2oc1=O (centres undefined) [Phenprocoumon] | 104% | -6.96%
13 | CC(=O)O[C@]1(C(C)=O)CC[C@H]2[C@@H]3C=C(C)C4=CC(=O)CC[C@]4(C)[C@H]3CC[C@@]21C | 118% | 0.304%
14 | C#C[C@]1(O)CC[C@H]2[C@@H]3CCC4=C(CCC(=O)C4)[C@H]3CC[C@@]21C | 84.4% | -0.859%
15 | CN(C)CCc1c[nH]c2ccc(CS(=O)(=O)N3CCCC3)cc12 [almotriptan] | 115% | -2.33%
16 | C[Se]CCC(N)C(=O)O (centres undefined) | 107% | -0.612%
17 | C=CC[C@@H]1/C=C(\C)C[C@H](C)C[C@H](OC)[C@H]2O[C@@](O)(C(=O)C(=O)N3CCCC[C@H]3C(=O)O[C@H](/C(C)=C/[C@@H]3CC[C@@H](O)[C@H](OC)C3)[C@H](C)[C@@H](O)CC1=O)[C@H](C)C[C@@H]2OC | 133% | 0.827%
18 | C[C@@H]1C(=O)NC2=Nc3cccc(Cl)c3CN21 [quazinone] | 104% | -3.11%
19 | O=C(O)CCSCC(=O)O [danosteine] | 74.7% | -5.96%

Row | Compound | mCherry [1] | percent effect [2]
20 | Cc1nnc(SCC2=C(C(=O)O)N3C(=O)[C@@H](NC(=O)Cn4cnnn4)[C@H]3SC2)s1 | 114% | -14.6%
21 | N[C@@H](CC(=O)O)C(=O)O [aspartic acid] | 112% | -1.53%
22 | CN(C)CCN(Cc1cccs1)c1ccccn1 [methapyrilene] | 99.1% | -1.74%
23 | COc1cc(C(=O)NCCCCCC(=O)O)cc(OC)c1OC [capobenic acid] | 91.2% | -0.864%
24 | NCCc1ccc(O)c(O)c1 [dopamine] | 130% | -0.599%
25 | CC(C)[N+]1(C)[C@@H]2CC[C@H]1CC(OC(=O)C(CO)c1ccccc1)C2 (some centres undefined) | 72.8% | -3.1%
26 | CC1(C)S[C@@H]2[C@H](NC(=O)[C@H](N)c3ccccc3)C(=O)N2[C@H]1C(=O)O [Ampicillin] | 76.3% | -6.05%
27 | CC(C)(O/N=C(\C(=O)N[C@@H]1C(=O)N2C(C(=O)[O-])=C(C[n+]3ccccc3)CS[C@H]12)c1csc(N)n1)C(=O)O [Ceftazidime] | 61.5% and 78.5% | -2.39% and -0.974%
28 | Nc1nc(/C(=C/CC(=O)O)C(=O)N[C@@H]2C(=O)N3C(C(=O)O)=CCS[C@H]23)cs1 [ceftibuten] | 116% | -3.75%
29 | CCN(CC)CCOC(=O)C1(c2ccccc2)CCCC1 [caramiphen] | 114% | -2.71%
30 | CC(C)CN(C[C@@H](OP(=O)(O)O)[C@H](Cc1ccccc1)NC(=O)O[C@H]1CCOC1)S(=O)(=O)c1ccc(N)cc1 [fosamprenavir] | 121% | -5.33%
31 | CC(=O)[C@H]1CC[C@H]2[C@@H]3CC=C4C=C(OC5CCCC5)CC[C@]4(C)[C@H]3CC[C@]12C [quingestrone] | 90.5% | -0.488%
32 | CCN(CC)CCOc1ccc(C(=C(Cl)c2ccccc2)c2ccccc2)cc1 [clomifene] | 97.1% and 91.8% and 82.5% | -2.6% and -9.26% and -0.594%
33 | c1ccc([C@H]2CN3CCSC3=N2)cc1 [levamisole] | 96.5% | -3.15%
34 | CO/N=C(\C(=O)N[C@@H]1C(=O)N2C(C(=O)O)=C(CSc3nnnn3C)CS[C@H]12)c1csc(N)n1 [Cefmenoxime] | 72.6% | -4.49%
35 | N=C(N)N/N=C/c1c(Cl)cccc1Cl [Guanabenz] | 76.3% | -1.67%
36 | COc1ccc(C(=O)Nc2c(Cl)cncc2Cl)cc1OC1CCCC1 [piclamilast] | 64.1% | -6.74%
37 | C/C(=N\O)C(C)NCC(C)(C)CNC(C)/C(C)=N/O (centres undefined) [exametazime] | 97% | -3.03%
38 | NS(=O)(=O)c1ccc(Cl)c(S(N)(=O)=O)c1 [clofenamide] | 99.4% | -7.5%

Row | Compound | mCherry [1] | percent effect [2]
39 | COc1ccc(CCNCC(O)COc2cccc(C)c2)cc1OC (centres undefined) [bevantolol] | 108% | -4.79%
40 | Cc1cc(CC(=O)O)n(C)c1C(=O)c1ccc(Cl)cc1 [zomepirac] | 117% | 0.437%
41 | C[C@H](Cn1cnc2c(N)ncnc21)OCP(=O)(O)O [tenofovir] | 103% | -10.5%
42 | O=C(NC[C@H]1CN(c2ccc(N3CCOCC3=O)cc2)C(=O)O1)c1ccc(Cl)s1 [rivaroxaban] | 94.3% | -3.2%
43 | CN(C)CCCN1c2ccccc2CCc2ccc(Cl)cc21 [clomipramine] | 106% | 1.62%
44 | Nc1ccc(C(=O)NCC(=O)O)cc1 | 107% | -1.47%
45 | CC(=O)OCC(=O)[C@@]1(O)CC[C@H]2[C@@H]3CCC4=CC(=O)CC[C@]4(C)[C@H]3C(=O)C[C@@]21C | 101% | -3.98%
46 | NC(N)=Nc1nc(CSCCN/C=N/S(=O)(=O)c2ccc(Br)cc2)cs1 [ebrotidine] | 81.7% | 1.43%
47 | CC(=O)O[C@H]1C[C@@]2(C)[C@@H](C[C@@H](O)[C@H]3[C@@]4(C)CC[C@@H](O)[C@@H](C)[C@@H]4CC[C@@]32C)/C1=C(\CCC=C(C)C)C(=O)O | 112% | -14.7%
48 | CCOC(CN1CCN(CC(C)C(=O)c2ccccc2)CC1)c1ccccc1 (centres undefined) [eprazinone] | 115% | -7.11%
49 | O=C(O)c1ccccc1OP(=O)(O)O [fosfosal] | 115% | 0.83%
50 | Cc1c(N(C)CS(=O)(=O)O)c(=O)n(-c2ccccc2)n1C [metamizole sodium] | 104% | -0.528%
51 | O=C(O)COCCN1CCN(C(c2ccccc2)c2ccc(Cl)cc2)CC1 (centres undefined) [cetirizine] | 91.6% and 113% and 88.9% | -1.98% and -0.372% and 2.12%
52 | O=P(O)(O)OC(Cn1cncn1)(Cn1cncn1)c1ccc(F)cc1F [fosfluconazole] | 104% | -0.391%
53 | CCCC1(CC(=O)O)OCCc2c1[nH]c1ccccc21 (centres undefined) [prodolic acid] | 86.4% | -12.1%
54 | C[N+](C)(C)CC(=O)O | 95.3% | -7.93%
55 | O=C1CCC(c2ccc(-n3ccnc3)cc2)=NN1 [imazodan] | 94.2% | 4.19%
56 | COc1c(N2C[C@@H]3CCCN[C@@H]3C2)c(F)cc2c(=O)c(C(=O)O)cn(C3CC3)c12 [Moxifloxacin·HCl] | 87.1% | 3.61%
57 | CCCCNC(=O)NS(=O)(=O)c1ccc(C)cc1 [Tolbutamide] | 92% | -1.69%

Pulled one by one from the list above:
Row | Compound | mCherry [1] | percent effect [2]
53 | CCCC1(CC(=O)O)OCCc2c1[nH]c1ccccc21 (centres undefined) [prodolic acid] | 86.4% | -12.1%
48 | CCOC(CN1CCN(CC(C)C(=O)c2ccccc2)CC1)c1ccccc1 (centres undefined) [eprazinone] | 115% | -7.11%
49 | O=C(O)c1ccccc1OP(=O)(O)O [fosfosal] | 115% | 0.83%
56 | COc1c(N2C[C@@H]3CCCN[C@@H]3C2)c(F)cc2c(=O)c(C(=O)O)cn(C3CC3)c12 [Moxifloxacin·HCl] | 87.1% | 3.61%

— the supplement of paper PMC8256030
